The supplement of paper PMC7666118
Some of the results follow.

Protein sequences, listed by entry. Tags and fused reporters are not part of them. Lines headed by an entry give the natural chain unless they say otherwise; changes in a name come on top.
UniProt Q9UDG2, whole entry, looked up: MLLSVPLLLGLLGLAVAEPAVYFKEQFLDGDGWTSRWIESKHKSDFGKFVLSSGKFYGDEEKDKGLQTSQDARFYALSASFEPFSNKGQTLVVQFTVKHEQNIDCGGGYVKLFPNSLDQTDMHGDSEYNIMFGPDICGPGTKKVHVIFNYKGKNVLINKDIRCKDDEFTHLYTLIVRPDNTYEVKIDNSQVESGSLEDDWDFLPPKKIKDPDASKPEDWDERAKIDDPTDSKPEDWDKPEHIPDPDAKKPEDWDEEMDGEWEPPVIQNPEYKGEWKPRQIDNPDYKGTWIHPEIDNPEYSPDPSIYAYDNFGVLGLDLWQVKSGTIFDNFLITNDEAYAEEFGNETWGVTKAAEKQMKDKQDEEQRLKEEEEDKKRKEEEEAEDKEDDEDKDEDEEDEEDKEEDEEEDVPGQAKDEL
UniProt Q8WVD3: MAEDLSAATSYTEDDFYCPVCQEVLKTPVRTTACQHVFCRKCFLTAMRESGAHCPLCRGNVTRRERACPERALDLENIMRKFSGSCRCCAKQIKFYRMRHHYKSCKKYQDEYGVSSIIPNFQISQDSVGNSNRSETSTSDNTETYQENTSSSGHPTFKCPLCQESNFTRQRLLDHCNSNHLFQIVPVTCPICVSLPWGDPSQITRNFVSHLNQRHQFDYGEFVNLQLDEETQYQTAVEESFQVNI
UniProt Q15283: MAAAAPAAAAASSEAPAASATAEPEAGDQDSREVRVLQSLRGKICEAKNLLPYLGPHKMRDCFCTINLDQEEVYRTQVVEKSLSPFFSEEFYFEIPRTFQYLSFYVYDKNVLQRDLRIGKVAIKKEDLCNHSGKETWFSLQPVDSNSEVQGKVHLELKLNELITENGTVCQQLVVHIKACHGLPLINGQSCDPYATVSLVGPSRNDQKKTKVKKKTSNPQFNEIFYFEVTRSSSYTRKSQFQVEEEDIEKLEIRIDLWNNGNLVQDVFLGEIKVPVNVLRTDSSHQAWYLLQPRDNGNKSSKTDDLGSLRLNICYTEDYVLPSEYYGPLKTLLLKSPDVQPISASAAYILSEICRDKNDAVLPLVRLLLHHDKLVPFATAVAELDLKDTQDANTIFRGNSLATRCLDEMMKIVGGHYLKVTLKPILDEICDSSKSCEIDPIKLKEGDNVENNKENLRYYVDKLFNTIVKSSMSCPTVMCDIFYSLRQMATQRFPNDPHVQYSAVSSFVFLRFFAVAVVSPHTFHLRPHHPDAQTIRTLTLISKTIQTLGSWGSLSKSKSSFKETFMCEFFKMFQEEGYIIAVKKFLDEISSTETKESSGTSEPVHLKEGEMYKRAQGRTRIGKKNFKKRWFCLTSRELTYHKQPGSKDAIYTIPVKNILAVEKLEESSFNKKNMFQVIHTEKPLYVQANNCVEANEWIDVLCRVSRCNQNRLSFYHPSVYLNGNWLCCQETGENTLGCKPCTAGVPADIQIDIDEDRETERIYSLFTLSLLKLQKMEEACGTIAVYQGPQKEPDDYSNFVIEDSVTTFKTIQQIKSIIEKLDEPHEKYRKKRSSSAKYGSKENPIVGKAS
UniProt P22670: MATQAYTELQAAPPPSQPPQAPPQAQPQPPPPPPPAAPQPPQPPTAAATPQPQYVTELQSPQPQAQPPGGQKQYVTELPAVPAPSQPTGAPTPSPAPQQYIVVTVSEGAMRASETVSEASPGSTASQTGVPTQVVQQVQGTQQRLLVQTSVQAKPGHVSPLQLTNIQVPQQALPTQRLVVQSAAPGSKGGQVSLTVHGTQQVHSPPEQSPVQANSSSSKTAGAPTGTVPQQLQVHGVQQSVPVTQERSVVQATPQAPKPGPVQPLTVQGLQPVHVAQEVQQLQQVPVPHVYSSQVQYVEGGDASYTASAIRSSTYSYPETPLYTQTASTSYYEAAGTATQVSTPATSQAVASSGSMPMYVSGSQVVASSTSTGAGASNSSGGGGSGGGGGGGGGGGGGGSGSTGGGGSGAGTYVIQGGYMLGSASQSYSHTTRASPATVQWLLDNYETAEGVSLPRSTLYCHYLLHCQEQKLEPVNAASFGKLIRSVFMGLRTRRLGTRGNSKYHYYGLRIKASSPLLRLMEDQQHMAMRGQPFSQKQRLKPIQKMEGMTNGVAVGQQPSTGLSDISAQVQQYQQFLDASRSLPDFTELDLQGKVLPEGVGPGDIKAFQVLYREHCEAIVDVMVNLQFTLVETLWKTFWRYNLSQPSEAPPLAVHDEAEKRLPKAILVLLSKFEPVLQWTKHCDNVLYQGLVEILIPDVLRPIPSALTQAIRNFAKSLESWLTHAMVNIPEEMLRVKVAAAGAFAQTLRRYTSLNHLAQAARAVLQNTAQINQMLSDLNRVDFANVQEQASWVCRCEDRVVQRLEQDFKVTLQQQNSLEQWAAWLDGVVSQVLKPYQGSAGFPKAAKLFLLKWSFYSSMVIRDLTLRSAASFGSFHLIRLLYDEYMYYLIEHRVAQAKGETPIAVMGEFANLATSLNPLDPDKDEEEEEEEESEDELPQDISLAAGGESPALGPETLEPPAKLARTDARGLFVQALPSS
UniProt Q5W0B1: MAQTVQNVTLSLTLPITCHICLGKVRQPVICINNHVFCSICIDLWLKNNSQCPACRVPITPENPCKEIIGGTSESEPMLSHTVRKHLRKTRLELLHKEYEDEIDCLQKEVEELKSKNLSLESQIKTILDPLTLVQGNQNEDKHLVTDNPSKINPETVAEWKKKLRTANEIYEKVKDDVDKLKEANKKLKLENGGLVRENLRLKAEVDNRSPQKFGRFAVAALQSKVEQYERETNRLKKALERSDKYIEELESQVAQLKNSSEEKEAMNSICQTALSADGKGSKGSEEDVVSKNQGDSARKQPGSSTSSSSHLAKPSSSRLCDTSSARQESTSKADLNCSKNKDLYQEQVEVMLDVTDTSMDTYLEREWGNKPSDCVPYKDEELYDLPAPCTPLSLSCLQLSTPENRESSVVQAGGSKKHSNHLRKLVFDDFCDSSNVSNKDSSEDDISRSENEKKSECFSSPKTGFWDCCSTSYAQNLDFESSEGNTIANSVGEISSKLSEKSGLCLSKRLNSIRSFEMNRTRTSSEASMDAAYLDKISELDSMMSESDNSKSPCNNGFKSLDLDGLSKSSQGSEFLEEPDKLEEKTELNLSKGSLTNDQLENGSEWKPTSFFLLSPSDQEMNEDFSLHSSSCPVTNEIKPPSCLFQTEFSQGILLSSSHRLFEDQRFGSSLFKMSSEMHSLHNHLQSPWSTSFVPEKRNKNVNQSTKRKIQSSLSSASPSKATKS
UniProt Q9ULC3: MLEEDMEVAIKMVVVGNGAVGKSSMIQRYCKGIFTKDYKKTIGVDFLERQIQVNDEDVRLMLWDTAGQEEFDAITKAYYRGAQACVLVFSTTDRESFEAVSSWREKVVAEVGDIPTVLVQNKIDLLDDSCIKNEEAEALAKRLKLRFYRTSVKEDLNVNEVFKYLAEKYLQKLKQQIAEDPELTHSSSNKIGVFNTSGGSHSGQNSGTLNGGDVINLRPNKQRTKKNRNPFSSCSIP
UniProt Q8IY67: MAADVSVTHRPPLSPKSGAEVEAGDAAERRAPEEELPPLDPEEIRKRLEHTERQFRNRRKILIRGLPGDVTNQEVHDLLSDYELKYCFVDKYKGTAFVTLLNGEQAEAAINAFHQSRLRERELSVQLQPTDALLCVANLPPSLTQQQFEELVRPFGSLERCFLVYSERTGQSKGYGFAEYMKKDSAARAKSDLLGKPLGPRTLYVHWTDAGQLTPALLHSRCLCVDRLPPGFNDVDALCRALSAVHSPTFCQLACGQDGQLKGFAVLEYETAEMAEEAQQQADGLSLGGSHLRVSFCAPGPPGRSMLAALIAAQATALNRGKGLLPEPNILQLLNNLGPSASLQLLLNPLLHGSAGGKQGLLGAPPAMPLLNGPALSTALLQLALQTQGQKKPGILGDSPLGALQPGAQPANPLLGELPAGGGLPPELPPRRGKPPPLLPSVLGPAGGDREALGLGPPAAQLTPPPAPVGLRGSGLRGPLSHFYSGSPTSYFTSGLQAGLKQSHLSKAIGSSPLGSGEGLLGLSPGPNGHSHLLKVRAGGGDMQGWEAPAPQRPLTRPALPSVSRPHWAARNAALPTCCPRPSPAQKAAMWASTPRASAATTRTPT
UniProt Q96E17: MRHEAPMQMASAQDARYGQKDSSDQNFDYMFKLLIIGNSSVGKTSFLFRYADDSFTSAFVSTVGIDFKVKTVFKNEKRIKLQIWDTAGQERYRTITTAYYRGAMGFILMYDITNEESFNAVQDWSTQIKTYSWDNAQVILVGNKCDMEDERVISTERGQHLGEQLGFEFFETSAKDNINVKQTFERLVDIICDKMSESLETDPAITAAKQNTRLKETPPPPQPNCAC
UniProt O43502: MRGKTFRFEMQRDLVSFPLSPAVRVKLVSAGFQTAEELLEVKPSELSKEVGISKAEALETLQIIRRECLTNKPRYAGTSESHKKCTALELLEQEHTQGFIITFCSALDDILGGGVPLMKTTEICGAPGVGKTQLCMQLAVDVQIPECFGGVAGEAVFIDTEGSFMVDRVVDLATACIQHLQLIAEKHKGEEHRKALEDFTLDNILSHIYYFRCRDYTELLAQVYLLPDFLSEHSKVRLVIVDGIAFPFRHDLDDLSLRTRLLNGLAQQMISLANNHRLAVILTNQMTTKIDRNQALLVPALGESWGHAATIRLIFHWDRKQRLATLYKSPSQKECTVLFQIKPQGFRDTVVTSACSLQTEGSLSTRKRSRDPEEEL
UniProt Q9HBD1: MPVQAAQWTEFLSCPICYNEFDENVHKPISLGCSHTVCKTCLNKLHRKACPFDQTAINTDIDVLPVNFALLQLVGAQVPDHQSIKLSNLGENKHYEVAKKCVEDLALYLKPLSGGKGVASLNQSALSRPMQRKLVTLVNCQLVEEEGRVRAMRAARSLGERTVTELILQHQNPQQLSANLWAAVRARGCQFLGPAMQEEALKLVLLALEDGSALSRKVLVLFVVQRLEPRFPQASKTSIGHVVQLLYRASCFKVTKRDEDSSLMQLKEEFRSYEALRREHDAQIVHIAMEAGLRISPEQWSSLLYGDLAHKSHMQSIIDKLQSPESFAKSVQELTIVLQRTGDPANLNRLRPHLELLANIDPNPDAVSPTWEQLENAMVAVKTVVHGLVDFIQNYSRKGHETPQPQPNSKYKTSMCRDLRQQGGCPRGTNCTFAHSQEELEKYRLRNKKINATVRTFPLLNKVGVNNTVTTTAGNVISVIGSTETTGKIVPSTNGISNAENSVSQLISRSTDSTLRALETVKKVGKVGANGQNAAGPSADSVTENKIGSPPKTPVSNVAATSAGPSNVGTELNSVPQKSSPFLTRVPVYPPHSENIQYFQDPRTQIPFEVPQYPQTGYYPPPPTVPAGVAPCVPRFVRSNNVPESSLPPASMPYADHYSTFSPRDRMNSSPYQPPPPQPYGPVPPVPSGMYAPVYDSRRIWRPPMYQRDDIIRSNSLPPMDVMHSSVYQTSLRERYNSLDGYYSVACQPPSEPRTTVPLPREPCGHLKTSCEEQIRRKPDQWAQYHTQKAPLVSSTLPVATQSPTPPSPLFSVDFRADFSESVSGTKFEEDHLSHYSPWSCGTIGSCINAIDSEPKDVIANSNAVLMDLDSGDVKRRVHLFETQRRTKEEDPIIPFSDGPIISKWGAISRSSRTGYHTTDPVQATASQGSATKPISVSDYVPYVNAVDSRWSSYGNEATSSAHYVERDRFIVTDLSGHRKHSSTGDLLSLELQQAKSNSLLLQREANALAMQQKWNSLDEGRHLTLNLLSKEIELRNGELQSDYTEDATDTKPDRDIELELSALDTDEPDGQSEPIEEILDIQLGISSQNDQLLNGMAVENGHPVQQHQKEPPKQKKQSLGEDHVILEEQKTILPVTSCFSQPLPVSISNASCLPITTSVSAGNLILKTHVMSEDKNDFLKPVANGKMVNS
UniProt P53801: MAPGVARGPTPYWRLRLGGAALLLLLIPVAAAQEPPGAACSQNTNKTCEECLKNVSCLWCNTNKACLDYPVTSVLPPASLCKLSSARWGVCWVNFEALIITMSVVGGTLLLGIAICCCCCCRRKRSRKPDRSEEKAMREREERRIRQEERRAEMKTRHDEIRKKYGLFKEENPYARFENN
UniProt Q8WU10: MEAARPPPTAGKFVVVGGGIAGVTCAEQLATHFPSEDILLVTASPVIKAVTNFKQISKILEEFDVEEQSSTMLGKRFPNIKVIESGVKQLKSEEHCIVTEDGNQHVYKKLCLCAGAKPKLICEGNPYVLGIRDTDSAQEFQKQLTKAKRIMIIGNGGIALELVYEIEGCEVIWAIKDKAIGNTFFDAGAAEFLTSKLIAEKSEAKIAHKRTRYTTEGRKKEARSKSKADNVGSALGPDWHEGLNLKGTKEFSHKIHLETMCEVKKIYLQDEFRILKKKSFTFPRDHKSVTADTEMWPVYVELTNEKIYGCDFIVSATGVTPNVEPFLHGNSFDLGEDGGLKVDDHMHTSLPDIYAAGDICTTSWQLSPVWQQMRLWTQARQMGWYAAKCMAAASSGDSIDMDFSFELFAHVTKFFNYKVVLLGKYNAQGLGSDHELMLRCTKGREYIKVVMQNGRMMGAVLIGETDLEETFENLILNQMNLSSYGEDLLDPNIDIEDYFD

What follows are targets tested with COc1ccc(Cn2ccc3cc(C)c(C(=O)NO)cc32)cc1 (assay: dose-dependent thermal stabilisation call (2D-TPP, DLPTP, 10% FDR) (binary (1 = stabilised)); higher = stabilised by the compound). Details: system: HL-60 intact cells; concentration range 0.04-10 µM.
Procedure: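 2D thermal proteome profiling in intact HL-60 cells treated with BRD-3811 (0, 0.04, 0.29, 2, 10 uM) for 90 min at 37 C, then heated 3 min at one of 12 temperatures (42-63.9 C). Soluble protein was quantified by TMT10 MS. The value is the DLPTP call of the paper: dose-dependent thermal stabilisation over all temperatures at 10% FDR (F-test of a dose-response against a flat model); one experiment, one call per tested protein.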

Target | dose-dependent thermal stabilisation call
UniProt Q9UDG2_HUMAN | inactive: 0
RNF138 (UniProt Q8WVD3) | inactive: 0
RASA2 (UniProt Q15283) | inactive: 0
RFX1 (UniProt P22670) | inactive: 0
RNF219 (UniProt Q5W0B1) | inactive: 0
RAB1A (UniProt P62820) | inactive: 0
QRSL1 (UniProt Q9H0R6) | inactive: 0
UniProt Q5TEC6_HUMAN | inactive: 0
RAB6B (UniProt Q9NRW1) | inactive: 0
RAD51L1 (UniProt O15315) | inactive: 0
RNF20 (UniProt Q5VTR2) | inactive: 0
RCSD1 (UniProt Q6JBY9) | inactive: 0
RNF114 (UniProt Q9Y508) | inactive: 0
RAB23 (UniProt Q9ULC3) | inactive: 0
RAVER1 (UniProt Q8IY67) | inactive: 0
RALBP1 (UniProt Q15311) | inactive: 0
RAB3C (UniProt Q96E17) | inactive: 0
RINL (UniProt Q6ZS11) | inactive: 0
RAD51C (UniProt O43502) | inactive: 0
RC3H2 (UniProt Q9HBD1) | inactive: 0
RABL5 (UniProt Q9H7X7) | inactive: 0
RCHY1 (UniProt Q96PM5) | inactive: 0
PTTG1IP (UniProt P53801) | inactive: 0
RB1 (UniProt P06400) | inactive: 0
RNF13 (UniProt O43567) | inactive: 0
RAN (UniProt P62826) | inactive: 0
PYROXD1 (UniProt Q8WU10) | inactive: 0

Part of the list above, reformatted:
Target	dose-dependent thermal stabilisation call
RAB3C (UniProt Q96E17)	inactive: 0
RINL (UniProt Q6ZS11)	inactive: 0
